Measured data: PubChem BioAssay AID743121 (NCATS, 2013)
This is one part, drawn at random, of about 26,000 reagents tested. Of all reagents, 167 (0.63%) got an active call. 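Calls are per gene from RSA p-values that are not deposited; an individual active-marked siRNA can sensitise only weakly.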 Reagents against one gene are numbered here.

Test: 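Partners whose loss is lethal together with topoisomerase I blockade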 (primary screen)
Cells: MDA-MB-231 cells, a human breast cancer line
Reagent: single siRNA against human genes, 20 nM siRNA (0.8 pmol per well)
Time to read-out: 120 h (drug added 48 h after transfection, read 72 h later)
Conditions: camptothecin 20 nM (about EC30) for 72 h; vehicle 0.1% DMSO in parallel plates
Measurement: 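CellTiter-Glo ATP signal, scaled to control siRNA as percent viability; sensitisation given as log2 of untreated divided by camptothecin-treated viability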
Scale: log2 vehicle/camptothecin viability: higher = stronger sensitisation to camptothecin; viability with camptothecin and viability without drug: higher = more viable cells
Active means: 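Each gene scored by redundant siRNA activity (RSA) over its individual siRNA ratios; a gene is called active at p < 0.001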

gene symbol | reagent no. | log2 vehicle/camptothecin viability | viability with camptothecin (% of control) | viability without drug (% of control) | Outcome
PASK (PAS domain containing serine/threonine kinase) | 1 | 0.144 | 97.2 | 107 | inactive
PASK (PAS domain containing serine/threonine kinase) | 2 | -0.417 | 87.8 | 65.8 | inactive
PASK (PAS domain containing serine/threonine kinase) | 3 | -0.153 | 117 | 106 | inactive
PASK (PAS domain containing serine/threonine kinase) | 4 | 0.214 | 60.9 | 70.6 | inactive
KCNIP1 (potassium voltage-gated channel interacting protein 1) | 1 | 1.04 | 24.5 | 50.5 | inactive
KCNIP1 (potassium voltage-gated channel interacting protein 1) | 2 | -0.12 | 86.6 | 79.7 | inactive
KCNIP1 (potassium voltage-gated channel interacting protein 1) | 3 | -0.453 | 49.1 | 35.9 | inactive
KCNIP1 (potassium voltage-gated channel interacting protein 1) | 4 | 0.293 | 71.6 | 87.7 | inactive
RDH11 (retinol dehydrogenase 11) | 1 | 0.0395 | 52.9 | 54.4 | inactive
RDH11 (retinol dehydrogenase 11) | 2 | -0.0998 | 85.9 | 80.2 | inactive
RDH11 (retinol dehydrogenase 11) | 3 | -0.0283 | 105 | 103 | inactive
RDH11 (retinol dehydrogenase 11) | 4 | -0.372 | 72.8 | 56.3 | inactive
PDZRN3 (PDZ domain containing ring finger 3) | 1 | 0.709 | 13.4 | 21.9 | inactive
PDZRN3 (PDZ domain containing ring finger 3) | 2 | -0.346 | 96.6 | 76 | inactive
PDZRN3 (PDZ domain containing ring finger 3) | 3 | 0.0353 | 99 | 101 | inactive
PDZRN3 (PDZ domain containing ring finger 3) | 4 | -0.199 | 109 | 94.5 | inactive
EEF1A2 (eukaryotic translation elongation factor 1 alpha 2) | 1 | -0.109 | 94.6 | 87.7 | inactive
EEF1A2 (eukaryotic translation elongation factor 1 alpha 2) | 2 | 0.224 | 73.1 | 85.4 | inactive
EEF1A2 (eukaryotic translation elongation factor 1 alpha 2) | 3 | -0.504 | 44.2 | 31.2 | inactive
EEF1A2 (eukaryotic translation elongation factor 1 alpha 2) | 4 | -0.165 | 95.2 | 85 | inactive
BTNL9 (butyrophilin like 9) | 1 | -0.108 | 90.9 | 84.4 | inactive
BTNL9 (butyrophilin like 9) | 2 | -0.228 | 111 | 94.8 | inactive
BTNL9 (butyrophilin like 9) | 3 | -0.654 | 85.3 | 54.2 | inactive
FKBP1B (FKBP prolyl isomerase 1B) | 1 | -0.0163 | 94.3 | 93.2 | inactive
FKBP1B (FKBP prolyl isomerase 1B) | 2 | 0.954 | 22.9 | 44.4 | inactive
FKBP1B (FKBP prolyl isomerase 1B) | 3 | -0.143 | 40.2 | 36.4 | inactive
CLEC12A (C-type lectin domain family 12 member A) | 1 | -0.299 | 96.6 | 78.5 | inactive
CLEC12A (C-type lectin domain family 12 member A) | 2 | 0.552 | 55 | 80.7 | inactive
CLEC12A (C-type lectin domain family 12 member A) | 3 | 0.215 | 70.1 | 81.3 | inactive
CLEC12A (C-type lectin domain family 12 member A) | 4 | -0.105 | 110 | 103 | inactive
IFNA13 (interferon alpha 13) | 1 | 0.232 | 72 | 84.6 | inactive
IFNA13 (interferon alpha 13) | 2 | -0.228 | 85.7 | 73.2 | inactive
CHRNA9 (cholinergic receptor nicotinic alpha 9 subunit) | 1 | -0.348 | 76.6 | 60.2 | inactive
CHRNA9 (cholinergic receptor nicotinic alpha 9 subunit) | 2 | -0.194 | 108 | 94.2 | inactive
CHRNA9 (cholinergic receptor nicotinic alpha 9 subunit) | 3 | -0.277 | 50.7 | 41.8 | inactive
CHRNA9 (cholinergic receptor nicotinic alpha 9 subunit) | 4 | 0.173 | 66 | 74.4 | inactive
CMPK1 (cytidine/uridine monophosphate kinase 1) | 1 | 0.0751 | 45.7 | 48.1 | inactive
CMPK1 (cytidine/uridine monophosphate kinase 1) | 2 | -0.327 | 40.3 | 32.2 | inactive
CMPK1 (cytidine/uridine monophosphate kinase 1) | 3 | -0.314 | 103 | 83 | inactive
CMPK1 (cytidine/uridine monophosphate kinase 1) | 4 | -0.017 | 97.5 | 96.4 | inactive
PYGO2 (pygopus family PHD finger 2) | 1 | -0.553 | 57.7 | 39.3 | inactive
PYGO2 (pygopus family PHD finger 2) | 2 | -0.241 | 97.2 | 82.2 | inactive
PYGO2 (pygopus family PHD finger 2) | 3 | -0.737 | 75 | 45 | inactive
PYGO2 (pygopus family PHD finger 2) | 4 | -0.374 | 45.9 | 35.4 | inactive
TRRAP (transformation/transcription domain associated protein) | 1 | -0.405 | 59.8 | 45.1 | inactive
TRRAP (transformation/transcription domain associated protein) | 2 | -0.227 | 30 | 25.6 | inactive
TRRAP (transformation/transcription domain associated protein) | 3 | -0.338 | 67.4 | 53.3 | inactive
TRRAP (transformation/transcription domain associated protein) | 4 | -0.216 | 74.6 | 64.2 | inactive
TRRAP (transformation/transcription domain associated protein) | 5 | -0.0306 | 67.8 | 66.4 | inactive
NAIP (NLR family apoptosis inhibitory protein) | 1 | -0.206 | 91.4 | 79.3 | inactive
NAIP (NLR family apoptosis inhibitory protein) | 2 | -0.0504 | 81.3 | 78.5 | inactive
NAIP (NLR family apoptosis inhibitory protein) | 3 | 0.187 | 44.5 | 50.6 | inactive
NAIP (NLR family apoptosis inhibitory protein) | 4 | 0.083 | 82.4 | 87.3 | inactive
BPIFB1 (BPI fold containing family B member 1) | 1 | -0.329 | 71.6 | 57 | inactive
BPIFB1 (BPI fold containing family B member 1) | 2 | 0.223 | 78.9 | 92.1 | inactive
BPIFB1 (BPI fold containing family B member 1) | 3 | -0.54 | 77 | 53 | inactive
BPIFB1 (BPI fold containing family B member 1) | 4 | -0.173 | 77.3 | 68.5 | inactive
ADGRE4P (adhesion G protein-coupled receptor E4, pseudogene) | 1 | 0.123 | 38.5 | 41.9 | inactive
ADGRE4P (adhesion G protein-coupled receptor E4, pseudogene) | 2 | 0.0741 | 43.9 | 46.2 | inactive
ADGRE4P (adhesion G protein-coupled receptor E4, pseudogene) | 3 | -0.666 | 71.8 | 45.2 | inactive
ADGRE4P (adhesion G protein-coupled receptor E4, pseudogene) | 4 | -0.424 | 108 | 80.8 | inactive
UBE2B (ubiquitin conjugating enzyme E2 B) | 1 | -0.0691 | 77.6 | 74 | inactive
UBE2B (ubiquitin conjugating enzyme E2 B) | 2 | -0.589 | 81.7 | 54.3 | inactive
UBE2B (ubiquitin conjugating enzyme E2 B) | 3 | -0.246 | 63.8 | 53.8 | inactive
KLK1 (kallikrein 1) | 1 | -0.177 | 125 | 111 | inactive
KLK1 (kallikrein 1) | 2 | -0.437 | 84 | 62 | inactive
KLK1 (kallikrein 1) | 3 | -0.439 | 71.5 | 52.7 | inactive
ARSJ (arylsulfatase family member J) | 1 | -0.366 | 90.7 | 70.4 | inactive
ARSJ (arylsulfatase family member J) | 2 | -0.747 | 106 | 62.9 | inactive
ARSJ (arylsulfatase family member J) | 3 | 0.359 | 69.9 | 89.6 | inactive
TRIM9 (tripartite motif containing 9) | 1 | -0.251 | 93.5 | 78.6 | inactive
TRIM9 (tripartite motif containing 9) | 2 | -0.554 | 65.4 | 44.5 | inactive
TRIM9 (tripartite motif containing 9) | 3 | -0.309 | 73.3 | 59.2 | inactive
TRIM9 (tripartite motif containing 9) | 4 | -0.126 | 35 | 32.1 | inactive
PDGFC (platelet derived growth factor C) | 1 | -0.335 | 77.8 | 61.7 | inactive
PDGFC (platelet derived growth factor C) | 2 | -0.204 | 27.9 | 24.2 | inactive
PDGFC (platelet derived growth factor C) | 3 | -0.0529 | 80.9 | 78 | inactive
PDGFC (platelet derived growth factor C) | 4 | -0.181 | 80.3 | 70.9 | inactive
SULF2 (sulfatase 2) | 1 | -0.185 | 59 | 51.9 | inactive
SULF2 (sulfatase 2) | 2 | 0.337 | 68.4 | 86.4 | inactive
SULF2 (sulfatase 2) | 3 | -0.4 | 18.2 | 13.8 | inactive
SULF2 (sulfatase 2) | 4 | 0.657 | 46.4 | 73.2 | inactive
ADAM28 (ADAM metallopeptidase domain 28) | 1 | -0.324 | 89.1 | 71.2 | inactive
ADAM28 (ADAM metallopeptidase domain 28) | 2 | -0.333 | 73.6 | 58.4 | inactive
ADAM28 (ADAM metallopeptidase domain 28) | 3 | -0.352 | 94.5 | 74.1 | inactive
ADAM28 (ADAM metallopeptidase domain 28) | 4 | -0.608 | 54.7 | 35.9 | inactive
LONP2 (lon peptidase 2, peroxisomal) | 1 | 0.148 | 77.1 | 85.4 | inactive
LONP2 (lon peptidase 2, peroxisomal) | 2 | -0.515 | 54.3 | 38 | inactive
LONP2 (lon peptidase 2, peroxisomal) | 3 | -0.356 | 60.2 | 47 | inactive
LONP2 (lon peptidase 2, peroxisomal) | 4 | -0.00345 | 101 | 100 | inactive
